Laboratory results published in the supplement of paper PMC10849652.
The other results are listed elsewhere or left out. Residues, ends and D or L forms follow the SMILES beside them. *: point of attachment. Cbz = O=C(OCc1ccccc1)*

Protein sequences, listed by entry. Tags and fused reporters are not part of them. Lines headed by an entry give the natural chain unless they say otherwise; changes in a name come on top.
UniProt Q16836: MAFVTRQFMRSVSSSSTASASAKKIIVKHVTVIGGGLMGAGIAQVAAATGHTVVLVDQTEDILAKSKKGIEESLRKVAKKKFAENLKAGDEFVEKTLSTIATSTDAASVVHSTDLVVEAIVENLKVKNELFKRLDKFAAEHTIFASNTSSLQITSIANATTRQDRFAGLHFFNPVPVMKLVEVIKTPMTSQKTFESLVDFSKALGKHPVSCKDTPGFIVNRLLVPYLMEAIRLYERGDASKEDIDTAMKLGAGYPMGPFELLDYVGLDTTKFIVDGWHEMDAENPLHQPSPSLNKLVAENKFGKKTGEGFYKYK
UniProt Q9UBN7: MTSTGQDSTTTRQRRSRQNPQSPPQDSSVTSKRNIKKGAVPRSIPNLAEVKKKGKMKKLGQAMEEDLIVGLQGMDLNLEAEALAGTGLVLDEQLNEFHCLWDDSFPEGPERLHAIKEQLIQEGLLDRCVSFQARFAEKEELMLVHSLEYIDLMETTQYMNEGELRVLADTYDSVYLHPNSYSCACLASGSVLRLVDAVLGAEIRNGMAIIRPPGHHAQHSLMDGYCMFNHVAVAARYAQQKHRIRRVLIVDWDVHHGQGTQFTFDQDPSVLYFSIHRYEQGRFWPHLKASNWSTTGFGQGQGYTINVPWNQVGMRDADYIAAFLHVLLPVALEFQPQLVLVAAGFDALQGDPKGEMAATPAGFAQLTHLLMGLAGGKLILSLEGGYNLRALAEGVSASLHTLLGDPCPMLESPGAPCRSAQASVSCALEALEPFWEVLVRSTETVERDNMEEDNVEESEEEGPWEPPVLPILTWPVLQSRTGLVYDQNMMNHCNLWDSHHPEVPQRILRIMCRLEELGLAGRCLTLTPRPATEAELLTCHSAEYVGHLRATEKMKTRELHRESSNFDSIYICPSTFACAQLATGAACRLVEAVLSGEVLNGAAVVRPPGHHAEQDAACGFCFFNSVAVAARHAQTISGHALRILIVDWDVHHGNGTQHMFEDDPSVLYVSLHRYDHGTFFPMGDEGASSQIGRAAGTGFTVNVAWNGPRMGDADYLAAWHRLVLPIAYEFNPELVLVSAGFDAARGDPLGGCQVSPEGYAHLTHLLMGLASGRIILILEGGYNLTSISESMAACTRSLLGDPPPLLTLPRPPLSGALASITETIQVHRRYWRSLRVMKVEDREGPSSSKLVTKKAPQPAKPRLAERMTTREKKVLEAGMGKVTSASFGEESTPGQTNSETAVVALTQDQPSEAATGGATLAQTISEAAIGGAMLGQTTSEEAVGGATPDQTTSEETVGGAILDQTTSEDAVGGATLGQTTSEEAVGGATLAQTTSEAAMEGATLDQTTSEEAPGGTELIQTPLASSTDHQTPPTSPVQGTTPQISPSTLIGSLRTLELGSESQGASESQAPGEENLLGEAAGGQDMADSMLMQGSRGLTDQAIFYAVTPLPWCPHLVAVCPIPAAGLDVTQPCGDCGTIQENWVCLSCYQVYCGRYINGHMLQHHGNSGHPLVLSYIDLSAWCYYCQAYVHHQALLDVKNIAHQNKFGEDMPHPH
UniProt P69891: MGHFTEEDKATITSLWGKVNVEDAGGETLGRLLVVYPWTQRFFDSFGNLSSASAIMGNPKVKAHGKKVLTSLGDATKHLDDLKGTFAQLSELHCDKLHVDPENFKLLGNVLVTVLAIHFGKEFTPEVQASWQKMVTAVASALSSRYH
UniProt P08236: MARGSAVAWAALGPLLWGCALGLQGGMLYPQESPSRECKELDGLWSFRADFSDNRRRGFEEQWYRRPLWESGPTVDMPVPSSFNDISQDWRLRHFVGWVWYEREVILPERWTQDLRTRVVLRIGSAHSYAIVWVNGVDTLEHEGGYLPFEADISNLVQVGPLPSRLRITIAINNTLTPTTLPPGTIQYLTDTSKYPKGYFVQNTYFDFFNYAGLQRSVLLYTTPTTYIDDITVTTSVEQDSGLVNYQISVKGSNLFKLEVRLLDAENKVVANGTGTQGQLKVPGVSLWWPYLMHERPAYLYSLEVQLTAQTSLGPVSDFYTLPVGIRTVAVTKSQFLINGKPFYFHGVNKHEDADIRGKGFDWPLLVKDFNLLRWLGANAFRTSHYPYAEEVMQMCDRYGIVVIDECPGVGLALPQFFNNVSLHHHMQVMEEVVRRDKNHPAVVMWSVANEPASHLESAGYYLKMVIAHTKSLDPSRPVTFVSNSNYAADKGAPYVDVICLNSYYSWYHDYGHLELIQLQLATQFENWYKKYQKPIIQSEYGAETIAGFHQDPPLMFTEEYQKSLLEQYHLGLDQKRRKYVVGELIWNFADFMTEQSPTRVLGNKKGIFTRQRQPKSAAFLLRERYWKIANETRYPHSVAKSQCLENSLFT
UniProt P69892: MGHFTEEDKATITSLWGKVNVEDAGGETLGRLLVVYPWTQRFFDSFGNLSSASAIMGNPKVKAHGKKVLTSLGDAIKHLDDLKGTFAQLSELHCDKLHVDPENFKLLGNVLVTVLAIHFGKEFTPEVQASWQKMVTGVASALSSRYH
UniProt P06865: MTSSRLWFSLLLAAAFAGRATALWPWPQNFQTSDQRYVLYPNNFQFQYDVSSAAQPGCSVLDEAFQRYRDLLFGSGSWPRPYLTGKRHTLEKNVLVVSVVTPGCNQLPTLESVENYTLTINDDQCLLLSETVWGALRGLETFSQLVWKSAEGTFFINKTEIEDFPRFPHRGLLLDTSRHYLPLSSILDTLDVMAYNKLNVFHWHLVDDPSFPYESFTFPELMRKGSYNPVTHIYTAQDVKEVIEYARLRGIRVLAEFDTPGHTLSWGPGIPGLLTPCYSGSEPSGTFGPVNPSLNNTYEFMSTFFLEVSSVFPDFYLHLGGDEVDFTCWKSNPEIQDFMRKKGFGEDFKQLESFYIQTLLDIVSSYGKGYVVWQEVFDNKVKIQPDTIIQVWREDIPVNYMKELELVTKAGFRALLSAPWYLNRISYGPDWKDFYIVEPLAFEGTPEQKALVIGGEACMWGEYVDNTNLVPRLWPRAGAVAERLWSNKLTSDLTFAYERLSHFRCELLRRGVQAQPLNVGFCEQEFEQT
UniProt P52657, whole entry, looked up: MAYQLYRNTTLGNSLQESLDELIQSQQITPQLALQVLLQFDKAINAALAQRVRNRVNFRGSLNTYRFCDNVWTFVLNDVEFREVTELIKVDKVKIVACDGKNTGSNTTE
UniProt P10412, whole entry, looked up: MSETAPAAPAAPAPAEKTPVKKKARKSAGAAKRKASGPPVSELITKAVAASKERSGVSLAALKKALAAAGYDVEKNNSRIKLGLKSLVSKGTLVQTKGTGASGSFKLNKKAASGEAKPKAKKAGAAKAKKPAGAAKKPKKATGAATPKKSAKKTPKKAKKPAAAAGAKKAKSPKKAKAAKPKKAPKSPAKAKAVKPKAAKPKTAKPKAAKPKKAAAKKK
UniProt P40939: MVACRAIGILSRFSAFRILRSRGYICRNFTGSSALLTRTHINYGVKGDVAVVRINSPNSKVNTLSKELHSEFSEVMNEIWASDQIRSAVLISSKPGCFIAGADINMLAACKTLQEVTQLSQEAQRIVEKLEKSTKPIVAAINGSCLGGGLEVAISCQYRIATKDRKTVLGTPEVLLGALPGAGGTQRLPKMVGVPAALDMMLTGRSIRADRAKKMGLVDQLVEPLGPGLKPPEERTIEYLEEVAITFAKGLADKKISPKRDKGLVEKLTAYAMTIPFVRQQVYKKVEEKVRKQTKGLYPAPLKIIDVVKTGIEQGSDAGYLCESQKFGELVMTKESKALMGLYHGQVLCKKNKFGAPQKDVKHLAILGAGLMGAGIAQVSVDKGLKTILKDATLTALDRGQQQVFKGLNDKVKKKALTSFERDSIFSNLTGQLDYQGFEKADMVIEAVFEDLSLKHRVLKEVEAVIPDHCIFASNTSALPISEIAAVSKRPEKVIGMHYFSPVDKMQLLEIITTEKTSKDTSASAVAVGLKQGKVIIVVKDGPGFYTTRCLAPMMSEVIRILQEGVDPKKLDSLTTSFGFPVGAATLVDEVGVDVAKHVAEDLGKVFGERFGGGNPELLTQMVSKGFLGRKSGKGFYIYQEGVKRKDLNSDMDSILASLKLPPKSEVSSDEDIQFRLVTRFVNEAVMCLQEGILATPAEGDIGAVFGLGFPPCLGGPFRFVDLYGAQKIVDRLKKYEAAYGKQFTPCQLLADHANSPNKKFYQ
UniProt Q7Z4H7: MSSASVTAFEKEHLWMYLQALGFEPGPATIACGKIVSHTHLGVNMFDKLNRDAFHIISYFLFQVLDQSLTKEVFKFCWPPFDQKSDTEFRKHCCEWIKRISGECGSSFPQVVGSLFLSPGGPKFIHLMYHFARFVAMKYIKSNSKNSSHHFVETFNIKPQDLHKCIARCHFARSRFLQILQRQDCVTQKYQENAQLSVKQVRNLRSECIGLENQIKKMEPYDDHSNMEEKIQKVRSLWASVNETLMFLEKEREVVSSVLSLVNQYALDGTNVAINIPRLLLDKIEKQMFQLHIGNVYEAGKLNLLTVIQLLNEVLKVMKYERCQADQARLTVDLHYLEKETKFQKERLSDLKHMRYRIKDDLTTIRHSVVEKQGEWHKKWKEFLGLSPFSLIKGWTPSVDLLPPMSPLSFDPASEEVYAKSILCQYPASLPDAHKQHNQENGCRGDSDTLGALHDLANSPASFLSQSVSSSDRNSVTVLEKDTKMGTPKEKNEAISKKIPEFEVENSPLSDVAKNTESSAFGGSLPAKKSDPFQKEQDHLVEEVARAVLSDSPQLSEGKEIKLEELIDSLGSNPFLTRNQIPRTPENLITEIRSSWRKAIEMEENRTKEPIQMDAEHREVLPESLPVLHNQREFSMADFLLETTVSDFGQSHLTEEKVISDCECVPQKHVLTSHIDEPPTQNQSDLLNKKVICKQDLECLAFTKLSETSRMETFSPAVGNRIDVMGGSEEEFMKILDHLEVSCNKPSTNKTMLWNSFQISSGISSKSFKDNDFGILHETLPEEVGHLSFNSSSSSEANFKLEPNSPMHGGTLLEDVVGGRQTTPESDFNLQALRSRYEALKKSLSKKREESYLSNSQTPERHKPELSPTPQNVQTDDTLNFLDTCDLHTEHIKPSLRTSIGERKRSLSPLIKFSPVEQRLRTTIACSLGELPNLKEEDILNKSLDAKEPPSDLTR
UniProt P29084: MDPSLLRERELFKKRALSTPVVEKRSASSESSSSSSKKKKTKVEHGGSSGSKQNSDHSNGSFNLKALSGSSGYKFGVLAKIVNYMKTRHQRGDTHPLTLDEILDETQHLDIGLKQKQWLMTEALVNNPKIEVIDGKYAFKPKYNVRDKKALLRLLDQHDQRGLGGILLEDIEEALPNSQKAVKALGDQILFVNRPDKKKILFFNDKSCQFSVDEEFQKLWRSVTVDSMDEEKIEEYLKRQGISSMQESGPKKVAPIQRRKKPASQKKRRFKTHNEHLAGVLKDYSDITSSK
UniProt Q9Y450, whole entry, looked up: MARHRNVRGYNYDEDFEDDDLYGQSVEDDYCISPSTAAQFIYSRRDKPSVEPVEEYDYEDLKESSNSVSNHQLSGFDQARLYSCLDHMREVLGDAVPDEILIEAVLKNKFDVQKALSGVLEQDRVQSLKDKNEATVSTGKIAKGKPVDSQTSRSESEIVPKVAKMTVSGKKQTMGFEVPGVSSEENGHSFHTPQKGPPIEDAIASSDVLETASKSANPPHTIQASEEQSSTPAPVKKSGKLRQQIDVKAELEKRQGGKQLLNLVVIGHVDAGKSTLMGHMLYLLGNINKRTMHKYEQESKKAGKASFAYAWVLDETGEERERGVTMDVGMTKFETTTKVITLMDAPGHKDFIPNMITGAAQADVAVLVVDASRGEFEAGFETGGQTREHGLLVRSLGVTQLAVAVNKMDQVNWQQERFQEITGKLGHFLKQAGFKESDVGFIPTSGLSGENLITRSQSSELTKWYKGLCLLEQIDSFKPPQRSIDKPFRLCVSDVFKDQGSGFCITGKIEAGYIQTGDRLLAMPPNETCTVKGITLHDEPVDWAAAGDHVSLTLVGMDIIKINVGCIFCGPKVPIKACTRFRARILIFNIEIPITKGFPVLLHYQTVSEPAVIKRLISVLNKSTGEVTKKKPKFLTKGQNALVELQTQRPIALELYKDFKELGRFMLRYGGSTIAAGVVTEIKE

How the values were obtained:
Experiment in all cases: log2 fold change, soluble protein after heating vs DMSO (PISA); higher = thermal stabilisation; K562 cells, 10 uM, 30 min; active = over 0.2 and 3.5 SD of the protein, either way, in both replicates (recomputed)
IRAK-1-4 Inhibitor I = compound: C1COCCN1CCN2C3=CC=CC=C3N=C2NC(=O)C4=CC(=CC=C4)[N+](=O)[O-] [IRAK-1-4 Inhibitor I]
How it was run: (§1)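 K562 cells at 2×10^6 cells/mL were treated for 30 min with 10 μM compound, and aliquots were heated for 3 min over 48°C-58°C before pooling. Extraction used PBS with 0.5% NP-40 at 4°C, and soluble protein was the supernatant after 21,000xg for 90 min, measured by TMTpro 16plex LC-MS/MS with channel sums equalised. Thermal stability values, relative to control samples and from duplicates, are log2 fold changes.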

ibrutinib = compound: C=CC(=O)N1CCC[C@@H](n2nc(-c3ccc(Oc4ccccc4)cc3)c3c(N)ncnc32)C1 [ibrutinib]
How it was run: as §1

[1] = compound: CC(=O)c1cnc2ccc(-c3cc(Cl)c(O)c(Cl)c3)nc2c1N[C@H]1CC[C@H](CN(C)C)CC1
How it was run: as §1

ralimetinib = compound: CC(C)(C)Cn1c(N)nc2ccc(-c3[nH]c(C(C)(C)C)nc3-c3ccc(F)cc3)nc21 [ralimetinib]
How it was run: as §1

[2] = compound: CC(C)(O)CC(=O)NCCn1ccc2ncnc(Nc3ccc(Oc4cccc(C(F)(F)F)c4)c(Cl)c3)c21
How it was run: as §1

[3] = compound: CC(C)C1=C2N=C(C=C(N2N=C1)NCC3=CC=CC=C3)NCCCCCCN
How it was run: as §1

[4] = compound: CC(C)C[C@@H](C=O)NC(=O)[C@H](CC(C)C)NC(=O)[C@H](CC(C)C)NC(=O)OCc1ccccc1
How it was run: as §1

pinometostat = compound: CC(C)N(C[C@H]1O[C@@H](n2cnc3c(N)ncnc32)[C@H](O)[C@@H]1O)[C@H]1C[C@@H](CCc2nc3cc(C(C)(C)C)ccc3[nH]2)C1 [pinometostat]
How it was run: as §1

[5] = compound: CC1=C(C(CC(=O)N1)C2=CC=C(C=C2)C(F)(F)F)C(=O)NC3=C(C=C4C(=C3)C=NN4)F
How it was run: as §1

[6] = compound: CC1=C(C2=C(C=C1)C(=O)C3=CC=CC=C3N2CCCN)C
How it was run: as §1

[7] = compound: CC1=C(C=C(C=C1)NC(=O)C2=CC(=CC=C2)C(C)(C)C#N)NC3=CC4=C(C=C3)N=CN(C4=O)C
How it was run: as §1

[8] = compound: CC1=C(C=C(C=C1)NC(=O)C2=CC(=CC=C2)N(C)C)NC(=O)C3=CC=C(C=C3)O
How it was run: as §1

[9] = compound: CC1=CC=C(C=C1)SC2=C3C=C(SC3=CN=C2)C(=O)N
How it was run: as §1

[10] = compound: CC1=NC(=CC=C1)C2=C(N=C(N2)C(C)(C)C)C3=CC4=NC=CN=C4C=C3
How it was run: as §1

Nexturastat A = compound: CCCCN(Cc1ccc(C(=O)NO)cc1)C(=O)Nc1ccccc1 [Nexturastat A]
How it was run: as §1

vemurafenib = compound: CCCS(=O)(=O)Nc1ccc(F)c(C(=O)c2c[nH]c3ncc(-c4ccc(Cl)cc4)cc23)c1F [vemurafenib]
How it was run: as §1

[11] = compound: CCCS(=O)(=O)Nc1ccc(F)c(C(=O)c2c[nH]c3ncc(Cl)cc23)c1F
How it was run: as §1

[12] = compound: CCCc1cc(C)[nH]c(=O)c1CNC(=O)c1cc(-c2ccnc(N3CCN(C)CC3)c2)cc2c1cnn2C(C)C
How it was run: as §1

givinostat = compound: CCN(CC)Cc1ccc2cc(COC(=O)Nc3ccc(C(=O)NO)cc3)ccc2c1 [givinostat]
How it was run: as §1

barasertib = compound: CCN(CCCOc1ccc2c(Nc3cc(CC(=O)Nc4cccc(F)c4)[nH]n3)ncnc2c1)CCOP(=O)(O)O [barasertib]
How it was run: as §1

Measured: log2 fold change

HADH isoform 2 (UniProt Q16836)
inactive: IRAK-1-4 Inhibitor I 0.022 | ibrutinib 0.006 | [1] -0.035 | ralimetinib -0.039 | [2] -0.004 | [3] 0.081 | [4] -0.022 | pinometostat -0.033 | [5] -0.013 | [6] 0.024 | [7] 0.034 | [8] -0.016 | [9] -0.046 | [10] 0.007 | Nexturastat A -0.065 | vemurafenib 0.011 | [11] -0.043 | [12] 0.003 | givinostat -0.033 | barasertib 0.035

HDAC6 (UniProt Q9UBN7)
active: Nexturastat A 0.522 | givinostat 1.03
inactive: IRAK-1-4 Inhibitor I -0.086 | ibrutinib 0.314 | [1] -0.03 | ralimetinib 0.034 | [2] -0.023 | [3] 0.069 | [4] -0.025 | pinometostat 0.009 | [6] 0.021 | [7] 0.016 | [8] -0.041 | [9] 0.022 | [10] -0.091 | vemurafenib 0.004 | [11] -0.018 | [12] -0.015 | barasertib 0

HERC4 (UniProt Q5GLZ8)
inactive: IRAK-1-4 Inhibitor I 0.029 | ibrutinib 0.018 | [1] -0.055 | ralimetinib 0.003 | [2] -0.043 | [3] -0.042 | [4] -0.02 | pinometostat -0.008 | [5] -0.009 | [6] 0.003 | [7] 0.009 | [8] -0.004 | [9] 0.027 | [10] 0.006 | Nexturastat A -0.02 | vemurafenib 0.05 | [11] 0.065 | [12] -0.042 | givinostat 0.012 | barasertib 0.035

HBG1 (UniProt P69891)
inactive: IRAK-1-4 Inhibitor I 0.004 | ibrutinib 0.025 | [1] -0.023 | ralimetinib -0.024 | [2] -0.025 | [3] 0.119 | [4] -0.051 | pinometostat -0.088 | [5] 0.019 | [6] 0.16 | [7] 0.016 | [8] -0.052 | [9] 0.07 | [10] 0.062 | Nexturastat A -0.026 | vemurafenib 0.056 | [11] 0.006 | [12] -0.028 | givinostat -0.089 | barasertib 0.014

GUSB (UniProt P08236)
active: givinostat -0.501
inactive: IRAK-1-4 Inhibitor I 0.037 | ibrutinib -0.016 | [1] -0.075 | ralimetinib -0.013 | [2] 0.011 | [3] 0.025 | [4] -0.005 | pinometostat -0.032 | [6] -0.077 | [7] -0.013 | [8] -0.014 | [9] -0.027 | [10] -0.073 | Nexturastat A 0.277 | vemurafenib 0.06 | [11] 0.03 | [12] -0.038 | barasertib -0.048

HBG2 (UniProt P69892)
inactive: IRAK-1-4 Inhibitor I 0.012 | ibrutinib 0.021 | [1] 0.024 | ralimetinib 0.008 | [2] -0.087 | [3] 0.065 | [4] -0.094 | pinometostat -0.094 | [5] -0.002 | [6] 0.134 | [7] 0.055 | [8] -0.102 | [9] 0.069 | [10] 0.072 | Nexturastat A -0.036 | vemurafenib 0.069 | [11] 0.039 | [12] 0.03 | givinostat -0.08 | barasertib -0.022

HEXA (UniProt P06865)
inactive: IRAK-1-4 Inhibitor I 0.013 | ibrutinib 0.004 | [1] 0.018 | ralimetinib -0.062 | [2] 0.024 | [3] -0.179 | [4] 0.032 | pinometostat -0.043 | [6] -0.05 | [7] -0.046 | [8] 0.022 | [9] -0.019 | [10] 0.004 | Nexturastat A -0.035 | vemurafenib -0.006 | [11] -0.023 | [12] -0.023 | givinostat -0.018 | barasertib -0.001

HCFC1 isoform 4 (UniProt P51610)
inactive: IRAK-1-4 Inhibitor I 0.01 | ibrutinib -0.022 | [1] 0.011 | ralimetinib -0.025 | [2] -0.083 | [3] 0.153 | [4] -0.004 | pinometostat -0.017 | [5] -0.057 | [6] 0.141 | [7] -0.011 | [8] -0.036 | [9] 0.008 | [10] 0.018 | Nexturastat A -0.006 | vemurafenib 0.001 | [11] 0.036 | [12] -0.031 | givinostat 0.041 | barasertib -0.028

GTF2A2 (UniProt P52657)
inactive: IRAK-1-4 Inhibitor I 0.013 | ibrutinib -0.028 | [1] -0.002 | ralimetinib -0.078 | [2] -0.026 | [3] 0.051 | [4] -0.019 | pinometostat -0.064 | [7] 0.009 | [8] -0.029 | [9] 0.052 | [10] 0.03 | Nexturastat A -0.091 | vemurafenib -0.083 | [11] -0.017 | [12] -0.053 | givinostat -0.044 | barasertib 0.007
active: [6] -0.357

HELQ (UniProt Q8TDG4)
inactive: IRAK-1-4 Inhibitor I -0.009 | ibrutinib -0.075 | [1] 0.042 | ralimetinib -0.037 | [2] 0.02 | [3] 0.088 | [4] 0.049 | pinometostat -0.019 | [5] -0.198 | [6] -0.013 | [7] 0.065 | [8] -0.1 | [9] 0.067 | [10] -0.005 | Nexturastat A -0.051 | vemurafenib -0.175 | [11] -0.002 | [12] -0.006 | givinostat -0.084 | barasertib 0.047

H1-4 (UniProt P10412)
inactive: IRAK-1-4 Inhibitor I -0.195 | ibrutinib 0.133 | [1] 0.048 | ralimetinib 0.11 | [2] 0.086 | [3] -0.087 | [4] 0.189 | pinometostat 0.369 | [5] 0.075 | [6] 0.727 | [7] 0.003 | [8] -0.074 | [9] -0.004 | [10] -0.304 | Nexturastat A 0.514 | vemurafenib -0.141 | [11] -0.066 | [12] 0.09 | givinostat 0.212 | barasertib -0.097

HADHA (UniProt P40939)
inactive: IRAK-1-4 Inhibitor I -0.001 | ibrutinib 0.175 | [1] -0.358 | ralimetinib 0.058 | [2] -0.132 | [3] 0.43 | [4] -0.116 | pinometostat -0.064 | [6] 0.054 | [7] 0.307 | [8] -0.203 | [9] 0 | [10] -0.022 | Nexturastat A -0.1 | vemurafenib -0.017 | [11] -0.006 | [12] 0.1 | givinostat 0.044 | barasertib -0.013

HEATR1 (UniProt Q9H583)
inactive: IRAK-1-4 Inhibitor I 0.07 | ibrutinib 0.071 | [1] -0.03 | ralimetinib 0.092 | [2] -0.003 | [3] -0.071 | [4] 0.324 | pinometostat -0.004 | [5] -0.116 | [6] 0.263 | [7] -0.169 | [8] -0.028 | [9] -0.038 | [10] 0.032 | Nexturastat A 0.337 | vemurafenib -0.239 | [11] 0.132 | [12] 0.004 | givinostat 0.168 | barasertib 0.159

HAUS6 (UniProt Q7Z4H7)
inactive: IRAK-1-4 Inhibitor I -0.118 | ibrutinib 0.047 | [1] 0 | ralimetinib 0.116 | [2] 0.029 | [3] -0.119 | [4] 0.117 | pinometostat 0.283 | [5] 0.013 | [6] 0.133 | [7] 0.003 | [8] 0.008 | [9] 0.055 | [10] -0.084 | Nexturastat A 0.286 | [11] -0.03 | [12] 0.167 | givinostat 0.161 | barasertib 0.128

GTF2E2 (UniProt P29084)
inactive: IRAK-1-4 Inhibitor I -0.041 | ibrutinib -0.008 | [1] -0.104 | ralimetinib -0.012 | [2] -0.033 | [3] -0.137 | [4] 0.075 | pinometostat 0.056 | [6] 0.056 | [7] 0.045 | [8] -0.068 | [9] -0.01 | [10] 0.02 | Nexturastat A 0.082 | vemurafenib 0.057 | [11] -0.039 | [12] 0.055 | givinostat 0.059 | barasertib 0.035

HBS1L isoform 2 (UniProt Q9Y450)
inactive: IRAK-1-4 Inhibitor I -0.212 | ibrutinib 0.011 | [1] -0.21 | ralimetinib -0.023 | [2] -0.019 | [3] -0.099 | [4] -0.028 | pinometostat -0.008 | [5] 0.14 | [6] 0.028 | [7] 0.076 | [8] -0.048 | [9] 0.125 | [10] 0.133 | Nexturastat A 0.035 | vemurafenib 0.071 | [11] 0.124 | [12] 0.026 | givinostat 0.043 | barasertib -0.004

2 records drawn at random from those above, as already listed:
HEATR1 (UniProt Q9H583)
inactive: IRAK-1-4 Inhibitor I 0.07 | ibrutinib 0.071 | [1] -0.03 | ralimetinib 0.092 | [2] -0.003 | [3] -0.071 | [4] 0.324 | pinometostat -0.004 | [5] -0.116 | [6] 0.263 | [7] -0.169 | [8] -0.028 | [9] -0.038 | [10] 0.032 | Nexturastat A 0.337 | vemurafenib -0.239 | [11] 0.132 | [12] 0.004 | givinostat 0.168 | barasertib 0.159

HEXA (UniProt P06865)
inactive: IRAK-1-4 Inhibitor I 0.013 | ibrutinib 0.004 | [1] 0.018 | ralimetinib -0.062 | [2] 0.024 | [3] -0.179 | [4] 0.032 | pinometostat -0.043 | [6] -0.05 | [7] -0.046 | [8] 0.022 | [9] -0.019 | [10] 0.004 | Nexturastat A -0.035 | vemurafenib -0.006 | [11] -0.023 | [12] -0.023 | givinostat -0.018 | barasertib -0.001

Following part:

GSTZ1 (UniProt G3V4T6)
inactive: IRAK-1-4 Inhibitor I 0.027 | ibrutinib 0.018 | [1] -0.03 | ralimetinib -0.069 | [2] 0.053 | [3] 0.076 | [4] 0.054 | pinometostat -0.024 | [5] -0.024 | [6] 0 | [7] -0.014 | [8] 0 | [9] -0.001 | [10] 0.025 | Nexturastat A -0.057 | vemurafenib -0.049 | [11] -0.02 | [12] -0.045 | givinostat -0.016 | barasertib 0.029
